Data taken from PubChem BioAssay AID1688 (National Center for Advancing Translational Sciences (NCATS), 2009).
Hit rate of the full screen: of about 220,000 compounds, about 2,400 (1.1%) were called active. The shares of active, inactive and inconclusive entries below differ from those in the screen. The call rests on the fitted dose curve; in most records, active means well fitted inhibition curve with a large enough effect; inconclusive means small, poorly fitted or top-dose-only effect, or effect the other way; inactive means no such curve, though single readings can be large or run the other way. Potencies of inconclusive entries are doubtful fits and often do not repeat.

Experiment: qHTS Multiplex Assay to Identify Dual Action Probes in a Cell Model of Huntington: Aggregate Formation (GFP); further: nearly all actives have a fitted effect of over 60% in size
Details: PC12 HttQ103-GFP aggregates, Acumen cytometry, 40 h; activity change, negative = inhibition: at 46.1 µM (top of the series) unless noted
Procedure, shortened: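 Ecdysone-promoter PC12 model expressing HTT exon 1 Q103 fused to GFP, induced by tebufenozide at 100 nM final. Compounds titrated; aggregates sized 1–25 µm scored on a 488 nm laser cytometer.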
On the % scale 0 is the no-effect control and ±100 the full control effect; potency means the concentration at half of the fitted maximal effect.

Row | Structure (SMILES) | Potency | activity change, negative = inhibition
1 | CC1CCN(C(=O)CN(c2ccc(Oc3ccccc3)cc2)S(C)(=O)=O)CC1 | inconclusive: 11.2 µM [inhibitor, partial curve, poor fit] | 
2 | Cc1ccc(CNC(=O)CCC2CCCN(Cc3ccc4cccc(F)c4n3)C2)o1 (centres undefined) | inconclusive: 14.1 µM [activator, single point] | 
3 | Cc1cccc(-n2cc(-c3ccccc3)c3c(N4CCOCC4)ncnc32)c1 | inconclusive: 35.5 µM [inhibitor, single point] | 
4 | c1ccc2sc(C3CCN(Cc4nnnn4Cc4ccc5c(c4)OCO5)CC3)nc2c1 | inconclusive: 35.5 µM [inhibitor, single point] | 
5 | O=c1[nH]nnc2sc3c(c12)CCCC3 | active: 11.2 µM | 
6 | Cc1ccccc1NC(=O)CNC(=O)c1ccc(C(F)(F)F)cc1 |  | inactive: 5.5%
7 | Cc1ccc2[nH]c3c(c2c1)SC(C)(C)CC3=O |  | inactive: 25.1%
8 | COC(=O)[C@@H](NC(=O)NCc1cccs1)C(C)C |  | inactive: -14.1%
9 | O=c1oc2cc(O)ccc2cc1-c1nc2c(s1)CCc1ccccc1-2 | inconclusive: 3.55 µM [inhibitor, partial curve] | 
10 | Cc1ccc(NC(=O)CSCc2ccco2)cc1 |  | inactive: 2.4%
11 | CCN(CC)C(=O)c1sc2nc(-c3ccc(OC)cc3)cn2c1C |  | inactive: 2.83%
12 | CC(=O)c1c(C)[nH]c(C(=O)OCc2cccc(Cl)c2)c1C | inconclusive: 10 µM [inhibitor, partial curve] | 
13 | COc1c(O)cccc1/C=N/NC(=O)Cn1ccnc1C |  | inactive: 15.7% [at 9.22 µM]
14 | CCn1c(N)nc2c1c(=O)n(C)c(=O)n2C |  | inactive: -20.2%
15 | N#Cc1nc(Cc2ccccc2)oc1N1CCC(Cc2ccccc2)CC1 | inconclusive: 12.6 µM [inhibitor, single point] | 
16 | COc1cccc(/C=N/Nc2ncnc3c2ncn3Cc2ccccc2)c1O | inconclusive: 1.78 µM [inhibitor, full curve, poor fit] | 
17 | CCN(CC)c1ccc(-n2c(C)cc(C=O)c2C)cc1 |  | inactive: -1.82%
18 | CC(=O)NC1(C2CCCCC2=O)CCCCC1 (centres undefined) | inconclusive: 4.47 µM [activator, single point] | 
19 | CCN(CC)c1ccc(/C=N/NC(=O)CCC(=O)NCc2ccccc2)c(O)c1 | inconclusive: 2.24 µM [inhibitor, full curve] | 
20 | O=C(NN=C1CCCCC1)c1cc(-c2ccccc2)n[nH]1 | inconclusive: 56.2 µM [inhibitor, partial curve, poor fit] | 
21 | O=C(CN(Cc1ccccc1)S(=O)(=O)c1ccccc1)N/N=C/c1ccc2c(c1)OCO2 |  | inactive: -6.77%
22 | O=[N+]([O-])c1c(NCCO)cc(Sc2nc3ccccc3s2)c2nonc12 | inconclusive: 17.8 µM [inhibitor, single point] | 
23 | CCCN1C(=O)/C(=N\OCC(=O)NC23CC4CC(CC(C4)C2)C3)c2ccccc21 | inconclusive: 35.5 µM [inhibitor, single point] | 

Row | Structure (SMILES) | Potency | activity change, negative = inhibition
24 | Cc1ccccc1CSc1nc2n(n1)C(c1cccs1)C1=C(CCCC1=O)N2 (centres undefined) | inconclusive: 20 µM [inhibitor, single point] | 
25 | COc1ccc2c(c1)O/C(=C\c1sccc1C)C2=O |  | inactive: -9.21%
26 | Cc1cc(C)n(C(=O)c2ccc(S(=O)(=O)NCC3CCCO3)cc2)n1 (centres undefined) | inconclusive: 0.316 µM [inhibitor, full curve] | 
27 | COc1ccccc1-c1cc(SC)c(C#N)c(=O)o1 | inconclusive: 25.1 µM [inhibitor, single point] | 
28 | O=C(NCc1ccncc1)c1cc2ccccc2nc1Cl | inconclusive: 35.5 µM [activator, partial curve, poor fit] | 
29 | Cc1nnc(Sc2cc(C(=O)NCc3ccco3)c3ccccc3n2)s1 | inconclusive: 31.6 µM [activator, single point] | 
30 | Cc1cc(NC(=O)c2noc3c2CCc2ccccc2-3)no1 |  | inactive: -12.1%
31 | CCOc1ccc(C(=O)NC(=S)N(Cc2ccccc2)Cc2ccccc2)cc1 | inconclusive: 12.6 µM [inhibitor, partial curve, poor fit] | 
32 | COc1ccc(CONc2ncnc3nonc23)cc1[N+](=O)[O-] |  | inactive: -19.6%
33 | Cc1cccc2sc(N(CCCN(C)C)C(=O)c3ccc(Cl)s3)nc12 | inconclusive: 3.98 µM [activator, single point] | 
34 | C=CCn1c(SCC(=O)Nc2ncc(Cc3ccc(C)c(Cl)c3)s2)nnc1-c1ccncc1 | inconclusive: 3.55 µM [inhibitor, partial curve] | 
35 | CCC(=O)N1CCCc2cc(S(=O)(=O)N3CCN(c4ccccn4)CC3)ccc21 | inconclusive: 28.2 µM [inhibitor, single point] | 
36 | O=C(/C(=N\Nc1ccc([N+](=O)[O-])cc1)Sc1nnnn1-c1ccccc1)c1ccccc1 | inconclusive: 35.5 µM [inhibitor, single point] | 
37 | CC1=CC(c2ccc(Cl)cc2)n2nc(NS(=O)(=O)c3ccc(C)cc3)nc2N1 (centres undefined) | inconclusive: 12.6 µM [activator, single point] | 
38 | CCN(CC)CCCNC(=O)CSc1c2c(nc3cc(Cl)ccc13)CCCC2 | inconclusive: 35.5 µM [inhibitor, single point] | 
39 | O=c1c2ccccc2nc(-c2ccccc2)n1/N=C/c1ccc([N+](=O)[O-])cc1 |  | inactive: -8.26%
40 | Oc1ccc(Cl)cc1CNc1ccc(Br)cn1 | inconclusive: 35.5 µM [inhibitor, single point] | 
41 | CCCCNC(=O)N1CCc2ccccc2C1 |  | inactive: 14.2%
42 | COc1cc2nc(/C=C/c3cc(OC)c(OC)c(OC)c3)sc2cc1SC | inconclusive: 4.47 µM [inhibitor, full curve] | 
43 | COc1ccc(C(=O)N=c2nc3ccccn3s2)cc1 | inconclusive: 35.5 µM [activator, partial curve, poor fit] | 
44 | CCOc1cc(CNCCSc2nnnn2C)cc(Br)c1OCc1ccccc1 | inconclusive: 15.8 µM [inhibitor, single point] | 
45 | COc1ccccc1CC1(C)NC(=O)N(CC(=O)Nc2cc(C)on2)C1=O (centres undefined) | inconclusive: 0.398 µM [inhibitor, full curve, poor fit] | 
46 | CCN1C(=O)/C(=C/N(C(C)=O)c2ccccc2)N(c2ccccc2)C1=S | inconclusive: 35.5 µM [inhibitor, single point] | 

Given as tab-separated lines: four of the compounds above
Row	Structure (SMILES)	Potency	activity change, negative = inhibition
41	CCCCNC(=O)N1CCc2ccccc2C1		inactive: 14.2%
42	COc1cc2nc(/C=C/c3cc(OC)c(OC)c(OC)c3)sc2cc1SC	inconclusive: 4.47 µM [inhibitor, full curve]	
43	COc1ccc(C(=O)N=c2nc3ccccn3s2)cc1	inconclusive: 35.5 µM [activator, partial curve, poor fit]	
44	CCOc1cc(CNCCSc2nnnn2C)cc(Br)c1OCc1ccccc1	inconclusive: 15.8 µM [inhibitor, single point]	

Further results

Row | Structure (SMILES) | Potency | activity change, negative = inhibition
47 | Fc1ccc(C2c3cccn3CCN2C(=S)Nc2cccc(Br)c2)cc1 (centres undefined) | inconclusive: 35.5 µM [inhibitor, single point] | 
48 | CC1CCN(c2ccc([N+](=O)[O-])cc2C(=O)O)CC1 | inconclusive: 10 µM [inhibitor, partial curve, poor fit] | 
49 | COc1cc(OC)cc(C(=O)Oc2c(CN3CCOCC3)cc(Cl)c3cccnc23)c1 | active: 4.47 µM | 
50 | COc1ccccc1COC(=O)N/C=C/c1ccco1 | inconclusive: 35.5 µM [activator, single point] | 
51 | Cc1c(CNCCC2=CCCCC2)c(C(=O)O)c(C)n1Cc1ccccc1 | inconclusive: 11.2 µM [inhibitor, partial curve] | 
52 | CCOC(=O)C1C(=O)CC(O)(c2ccccc2)CC1c1ccccc1 (centres undefined) | inconclusive: 35.5 µM [inhibitor, single point] | 
53 | C[C@H]1CS(=O)(=O)CCN1/N=C\c1ccc([N+](=O)[O-])o1 |  | inactive: -5.74% [at 20.6 µM]
54 | CCOP(=O)(OCC)C(NC(=O)/C=C/c1ccc(OC)cc1)c1ccccc1 (centres undefined) |  | inactive: 6.3%
55 | COc1ccc(C(=O)Nc2cc(C(F)(F)F)ccc2-n2cnc3ccccc32)cc1 |  | inactive: -20.7%
56 | O=C(NCc1ccccc1)C1COc2ccccc2O1 (centres undefined) | inconclusive: 316 µM [inhibitor, partial curve, poor fit] | 
57 | CC1C/C(=C/c2ccco2)C(=O)/C(=C/c2ccco2)C1 (centres undefined) | inconclusive: 25.1 µM [inhibitor, single point] | 
58 | O=C(CSc1nnc(Cc2cccs2)n1CCc1ccccc1)N1CCCc2ccccc21 | inconclusive: 35.5 µM [inhibitor, single point] | 
59 | NS(=O)(=O)c1ccc(CNS(=O)(=O)c2cccc3nonc23)cc1 | inconclusive: 6.31 µM [inhibitor, single point] | 
60 | CCOc1ccc2nc(SC3CC(=O)N(c4ccc(OC)cc4)C3=O)sc2c1 (centres undefined) | inconclusive: 35.5 µM [inhibitor, single point] | 
61 | CCOC(=O)CSc1nc2ccccc2n1CC(=O)N(C(C)C)C(C)C | inconclusive: 22.4 µM [inhibitor, single point] | 
62 | COC(=O)c1c(NC(=O)CN2CCN(Cc3ccc4c(c3)OCO4)CC2)sc(C)c1C |  | inactive: -17.6%
63 | CCn1nc(C(=O)NCCc2ccc(S(N)(=O)=O)cc2)c2ccccc2c1=O | inconclusive: 5.62 µM [inhibitor, single point] | 
64 | O=C(Nc1ccc(OCC(F)(F)C(F)F)cc1)c1ccncc1 | inconclusive: 12.6 µM [inhibitor, single point] | 
65 | O=c1cc(N2CCCCC2)c(-c2ccccc2)nn1Cc1cccc(Cl)c1 | inconclusive: 35.5 µM [inhibitor, single point] | 
66 | Cn1nc(-c2ccc3c(c2)OCCO3)c2ccccc2c1=O | inconclusive: 10 µM [inhibitor, partial curve] | 
67 | Cc1ccc(O)c(C(=O)/C=C/c2ccc3c(c2)OCCO3)c1 | inconclusive: 15.8 µM [inhibitor, single point] | 
68 | CCC(c1nnnn1C1CCCCC1)N(Cc1ccco1)Cc1cc2ccc(OC)cc2[nH]c1=O (centres undefined) | inconclusive: 35.5 µM [inhibitor, single point] | 
69 | Cc1ccc(OCC(=O)c2cc(C)n(-c3ccccc3)c2C)c([N+](=O)[O-])n1 | inconclusive: 3.16 µM [activator, partial curve, poor fit] | 
